Source: article PMC8429438
Results are given in words; binding and its absence hold for the method and conditions named. In cells and extracts the contact can be indirect. A yes stands for co-enrichment or nearness to the bait. Other partners may have been found.

B1: DnaJC6 (endogenous, PS19 mouse brain) (protein, UniProt Q80TZ3 1-938)
chain: MTNPKSGVAESAGLACSRAAAGENRMKDSENKGASSPDMEPSYGGGLFDMVKGGAGRLFSNLKDNLKDTLKDTSSRVIQSVSSYTKGDLDFTYVTSRIIVMSFPVDSVDIGFRNQVDDIRSFLDSRHLDHYTVYNLSPKSYRTAKFHSRVSECSWPIRQAPSLHNLFAVCRNMYNWLLQNPKNVCVVHCLDGRAASSILVGAMFIFCNLYSTPGPAVRLLYAKRPGIGLSPSHRRYLGYMCDLLADKPYRPHFKPLTIKAITVSPVPFFNKQRNGCRPYCDVLIGETKIYSTCTDFERMKEYRVQDGKIFIPLNITVQGDVIVSMYHLRSTIGSRLQAKVTNTQIFQLQFHSGFIPLDTTVLKFTKPELDACDVPEKYPQLFQVTLDIEVQPQDKVIDLTPPWEHYCTKDVNPSILFSSQQEHQDTLALGGQAPADLPPDHPRNLGQGGFFASLCWQDQKSEKSRCEEDHAALVNQESEQSDDELLTLSSPHGNAEGDKPHGAKKPGKKQQEPAAPPPPEEVDLLGLEGSDVSTNFSSLAAPPSNSELLSDLFGGVGATGPAQAGQAGVEDVFHPSGPVSAQSTPRRTATSASASPTLRVGEGATFDPFGAPAKPPGQDLLGSFLNTSSASSDPFLQPTRSPSPTVHASSTPAVNIQPDIAGGWDWHTKPGGFGMGSKSAATSPTGSSHGTPTHQSKPQTLDPFADLGTLGSSSFASKPTTPTGLGGGFPPLSSPQKASPQPMGGGWQQPAGYNWQQTQSKPQSSMPHSSPQNRPNYNVSFSAMPAGQSERGKGSTNLEGKQKAADFEDLLSSQGFNAHKDKKGPRTIAEMRKEEMAKEMDPEKLKILEWIEGKERNIRALLSTMHTVLWAGETKWKPVGMADLVTPEQVKKVYRRAVLVVHPDKATGQPYEQYAKMIFMELNDAWSEFENQGQKPLY
B2: DnaJC5 (endogenous, PS19 mouse brain) (protein, UniProt P60904 1-198)
chain: MADQRQRSLSTSGESLYHVLGLDKNATSDDIKKSYRKLALKYHPDKNPDNPEAADKFKEINNAHAILTDATKRNIYDKYGSLGLYVAEQFGEENVNTYFVLSSWWAKALFVVCGLLTCCYCCCCLCCCFNCCCGKCKPKAPEGEETEFYVSPEDLEAQLQSDEREATDTPIVIQPASATETTQLTADSHPSYHTDGFN
B3: DnaJC7 (endogenous, PS19 mouse brain) (protein, UniProt Q9QYI3 1-494)
chain: MAATAECDVVMAATEPELLEDEDAKREAESFKEQGNAYYAKKDYNEAYNYYTKAIDMCPNNASYYGNRAATLMMLGRFREALGDAQQSVRLDDSFVRGHLREGKCHLSLGNAMAACRSFQRALELDHKNAQAQQEFKNANAVMEYEKIAEVDFEKRDFRKVVFCMDRALEFAPACHRFKILKAECLAMLGRYPEAQFVASDILRMDSTNADALYVRGLCLYYEDCIEKAVQFFVQALRMAPDHEKACVACRNAKALKAKKEDGNKAFKEGNYKLAYELYTEALGIDPNNIKTNAKLYCNRGTVNSKLRQLEDAIEDCTNAVKLDDTYIKAYLRRAQCYMDTEQFEEAVRDYEKVYQTEKTKEHKQLLKNAQLELKKSKRKDYYKILGVDKNASEDEIKKAYRKRALMHHPDRHSGASAEVQKEEEKKFKEVGEAFTILSDPKKKTRYDSGQDLDEEGMNMGDFDANNIFKAFFGGPGGFSFEASGPGNFYFQFG
B4: DnaJC6 (mouse brain) (protein, UniProt Q80TZ3 1-938)
chain: B1 chain
B5: DnaJC5 (mouse brain) (protein, UniProt P60904 1-198)
chain: B2 chain
B6: DnaJC7 (mouse brain) (protein, UniProt Q9QYI3 1-494)
chain: B3 chain

Biological target: human 1N4R P301S tau expressed in PS19 tauopathy mouse brain (human)
Test: affinity purification with mass spectrometry; soluble tau immunopurified from PS19 mouse brains (weeks 1-6) with the HJ8.5 anti-human tau antibody and protein G-agarose, Superdex 200 SEC, LC-MS/MS searched against the mouse proteome

binding | Binder
binds | B1
binds | B2
binds | B3

Biological target: 1N4R P301S tau from PS19 tauopathy mouse brain (human)
Test: affinity purification with mass spectrometry; tau immunoprecipitated with HJ8.5 from PS19 mouse brains of weeks 1 through 6, Superdex 200, mass spectrometry (Proteome Discoverer, mouse proteome)

binding | Binder
binds | B4
binds | B5
binds | B6
